Laboratory results published in patent US20050085418A1 (CELLTECH R AND D, published 2005).
No constants are given. Whether binding was seen depends on the method and setting. Some binding calls cover weakened binding; strength is not graded here.

Amino acid sequences for entries named in this document (tags omitted). Residues count along the entry.
UniProt Q99P67, residues 24-213: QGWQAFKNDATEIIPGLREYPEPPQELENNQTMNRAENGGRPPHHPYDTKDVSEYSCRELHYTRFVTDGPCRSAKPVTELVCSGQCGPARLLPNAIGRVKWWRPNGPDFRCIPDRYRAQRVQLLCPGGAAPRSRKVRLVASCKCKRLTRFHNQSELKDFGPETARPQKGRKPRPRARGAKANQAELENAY
UniProt Q9BQB4, residues 24-213: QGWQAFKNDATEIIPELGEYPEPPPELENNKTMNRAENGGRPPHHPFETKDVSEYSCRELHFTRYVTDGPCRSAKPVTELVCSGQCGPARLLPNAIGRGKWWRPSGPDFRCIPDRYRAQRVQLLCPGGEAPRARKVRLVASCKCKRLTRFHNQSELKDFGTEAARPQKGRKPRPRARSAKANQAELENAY
UniProt P22004, residues 382-513: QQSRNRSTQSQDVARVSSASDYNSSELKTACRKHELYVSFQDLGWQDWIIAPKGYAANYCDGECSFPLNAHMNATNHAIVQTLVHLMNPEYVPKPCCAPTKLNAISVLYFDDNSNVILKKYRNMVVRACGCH

How the values were obtained:
[1] = biological target: poly-histidine-tagged rat sclerostin (rat) (UniProt Q99P67); assay: SPR, chip-immobilised His-tagged rat sclerostin (FIG. 6)
[2] = biological target: purified human sclerostin-FLAG® fusion protein (human) (UniProt Q9BQB4); assay: SPR on immobilised sclerostin: buffer or candidate anti-sclerostin antibody injected first, then BMP-6 [both panels]
[3] = biological target: purified human sclerostin-FLAG® fusion protein (human) (UniProt Q9BQB4); assay: SPR on immobilised sclerostin, first injection of the coinject experiment [left panel]
[4] = biological target: purified human sclerostin-FLAG® fusion protein (human) (UniProt Q9BQB4); assay: SPR, human sclerostin-FLAG immobilised on the chip, BMP-6 injected
[5] = biological target: purified human sclerostin-FLAG® fusion protein (human) (UniProt Q9BQB4); assay: SPR, chip-immobilised human sclerostin-FLAG (FIG. 6)
[6] = biological target: poly-histidine-tagged rat sclerostin (rat) (UniProt Q99P67); assay: SPR, poly-histidine-tagged rat sclerostin immobilised on the chip, BMP-6 injected
[7] = biological target: poly-histidine-tagged rat sclerostin (rat) (UniProt Q99P67); assay: SPR (legend of FIG. 6)
[8] = biological target: purified human sclerostin-FLAG® fusion protein (human) (UniProt Q9BQB4); assay: SPR (legend of FIG. 6)

Measured: binding

human BMP-6 (from UniProt P22004 382-513) (ligand)
binds: all assays above
